PubChem BioAssay AID504774 | Drosophila RNAi Screening Center | 2011
Assay: 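Genes required for cells to withstand methyl methanesulphonate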 (primary screen). Cell system: Drosophila Kc167 cells. Reagents: long dsRNA against Drosophila genes, about 0.25 µg dsRNA per well. Duration: about 6 days: 3 days knock-down, then 3 days with or without MMS. Treatment: methyl methanesulphonate 0.004% (w/v) for 3 days after knock-down. Measured: 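ATP-dependent luminescence as a measure of live cells in MMS-exposed wells, quantile normalised within each plate, with replicate values also given as a mean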. Scale: mean viability with MMS and viability with MMS: higher = more surviving cells after MMS.
The deposit covers about 23,000 reagents; this is an unselected part of those with a known target gene and a result. 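Values are quantile-normalised luminescence on an arbitrary scale; higher means more cells surviving MMS.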 A plus sign joins genes that one reagent is predicted to hit.

| gene | DRSC id | mean viability with MMS | viability with MMS, replicate 1 | viability with MMS, replicate 2 |
| --- | --- | --- | --- | --- |
| lncRNA:CR32690 (long non-coding RNA:CR32690) | DRSC22219 | 3.51e6 | 3.95e6 | 4.02e6 |
| CG7326 | DRSC20037 | 3.61e6 | 4.12e6 | 4.04e6 |
| CG42537 | DRSC12519 | 3.69e6 | 4.07e6 | 4.25e6 |
| snRNP-U1-C (small ribonucleoprotein particle U1 subunit C) | DRSC15804 | 3.22e6 | 3.68e6 | 3.75e6 |
| CG11878 | DRSC14422 | 3.40e6 | 3.91e6 | 3.73e6 |
| Gbeta13F (G protein beta subunit 13F) | DRSC20247 | 3.58e6 | 4.17e6 | 4.08e6 |
| CG8476 | DRSC16426 | 3.70e6 | 4.23e6 | 4.19e6 |
| janA (janus A) | DRSC16972 | 3.35e6 | 3.72e6 | 3.80e6 |
| CG7083 | DRSC11136 | 3.64e6 | 4.09e6 | 4.17e6 |
| CG9173 | DRSC08635 | 3.65e6 | 4.07e6 | 4.15e6 |
| Cog7 (Component of oligomeric golgi complex 7) | DRSC16331 | 3.56e6 | 3.97e6 | 4.08e6 |
| CG32855 | DRSC13131 | 3.45e6 | 3.95e6 | 3.89e6 |
| Mal-B1 (Maltase B1) | DRSC02416 | 3.44e6 | 3.78e6 | 4.00e6 |
| HDAC6 (Histone deacetylase 6) | DRSC20252 | 3.58e6 | 3.94e6 | 4.29e6 |
| Polr3F (RNA polymerase III subunit F) | DRSC15785 | 3.25e6 | 3.70e6 | 3.75e6 |
| CG6236 | DRSC15999 | 3.47e6 | 3.95e6 | 3.91e6 |
| Ggt-1 (gamma-glutamyl transpeptidase) | DRSC19993 | 3.66e6 | 4.20e6 | 4.14e6 |
| Snoo (Sno oncogene) | DRSC01008 | 3.71e6 | 4.18e6 | 4.18e6 |
| Snoo (Sno oncogene) | DRSC03004 | 3.65e6 | 4.04e6 | 4.28e6 |
| Snoo (Sno oncogene) | DRSC03035 | 3.63e6 | 4.14e6 | 4.09e6 |
| mago (mago nashi) | DRSC04703 | 2.98e6 | 3.63e6 | 3.60e6 |
| Cpr76Bb (Cuticular protein 76Bb) | DRSC11061 | 3.53e6 | 3.84e6 | 4.16e6 |
| Cpr76Bb (Cuticular protein 76Bb) | DRSC22870 | 3.22e6 | 3.74e6 | 3.82e6 |
| CG32772 | DRSC18052 | 3.53e6 | 4.00e6 | 4.03e6 |
| CG32772 | DRSC18406 | 3.61e6 | 3.99e6 | 4.21e6 |
| CG32772 | DRSC22349 | 3.60e6 | 4.01e6 | 4.12e6 |
| Hsp70Bc (Heat shock protein 70 Bc) | DRSC16053 | 3.42e6 | 3.84e6 | 3.95e6 |
| RunxA (Runt related A) | DRSC20400 | 3.54e6 | 4.05e6 | 3.98e6 |
| RunxA (Runt related A) | DRSC20498 | 3.00e6 | 3.65e6 | 3.69e6 |
| RunxA (Runt related A) | DRSC20524 | 3.67e6 | 4.04e6 | 4.21e6 |
| RunxA (Runt related A) | DRSC21915 | 3.74e6 | 4.19e6 | 4.18e6 |
| CG7220 | DRSC05235 | 3.68e6 | 4.01e6 | 4.22e6 |
| CG7220 | DRSC07018 | 3.59e6 | 3.96e6 | 4.15e6 |
| CG13000 | DRSC19519 | 3.41e6 | 3.81e6 | 3.88e6 |
| CG31917 + Tfb5 | DRSC02362 | 3.21e6 | 3.53e6 | 3.55e6 |
| CG31917 + Tfb5 | DRSC02363 | 3.03e6 | 3.38e6 | 3.37e6 |
| Ror | DRSC03414 | 3.54e6 | 4.27e6 | 3.78e6 |
| dila (dilatory) | DRSC06607 | 3.41e6 | 3.84e6 | 3.90e6 |
| Sting | DRSC06615 | 3.57e6 | 4.01e6 | 4.07e6 |
| fdl (fused lobes) | DRSC07279 | 3.60e6 | 4.07e6 | 4.10e6 |
| CG6845 | DRSC08576 | 3.49e6 | 3.90e6 | 4.00e6 |
| olf186-M | DRSC07657 | 3.46e6 | 3.88e6 | 3.95e6 |
| CG11666 | DRSC22379 | 3.45e6 | 3.91e6 | 3.95e6 |
| CG17598 | DRSC20636 | 3.42e6 | 3.89e6 | 3.81e6 |
| ArgRS (Arginyl-tRNA synthetase) | DRSC20138 | 3.36e6 | 3.77e6 | 3.78e6 |
| CG3407 | DRSC00603 | 3.51e6 | 3.98e6 | 3.95e6 |
| cona (corona) | DRSC16281 | 3.58e6 | 4.05e6 | 4.06e6 |
| Tom (Twin of m4) | DRSC11306 | 3.56e6 | 4.07e6 | 3.99e6 |
| Fkbp59 (FK506-binding protein 59kD) | DRSC03323 | 3.56e6 | 4.23e6 | 3.86e6 |
| CG6685 | DRSC10695 | 3.71e6 | 4.07e6 | 4.28e6 |
| CG30026 | DRSC05276 | 3.55e6 | 3.98e6 | 4.06e6 |
| PGRP-SC1a (Peptidoglycan recognition protein SC1a) | DRSC06482 | 3.49e6 | 3.96e6 | 3.97e6 |
| jeb (jelly belly) | DRSC06305 | 3.44e6 | 3.87e6 | 3.86e6 |
| jeb (jelly belly) | DRSC06307 | 3.65e6 | 4.26e6 | 4.09e6 |
| Ir94h (Ionotropic receptor 94h) | DRSC15232 | 3.61e6 | 4.17e6 | 4.01e6 |
| Eato (Engulfment ABC Transporter in the ovary) | DRSC01891 | 3.68e6 | 4.19e6 | 4.22e6 |
| Eato (Engulfment ABC Transporter in the ovary) | DRSC03061 | 3.54e6 | 3.97e6 | 4.06e6 |
| CG18476 | DRSC15281 | 3.67e6 | 4.20e6 | 4.15e6 |
| Dph1 (Diphthamide biosynthesis 1) | DRSC09851 | 3.57e6 | 4.08e6 | 4.03e6 |
| CG14969 | DRSC08428 | 3.49e6 | 3.88e6 | 4.02e6 |
| Prip | DRSC07044 | 3.87e6 | 4.36e6 | 4.32e6 |
| ReepB (Receptor expression enhancing protein B) | DRSC07150 | 3.62e6 | 4.13e6 | 4.09e6 |
| CG17658 | DRSC04292 | 3.42e6 | 3.74e6 | 3.99e6 |
| CG9150 | DRSC03148 | 3.56e6 | 4.18e6 | 3.87e6 |
| CG31792 | DRSC02604 | 3.55e6 | 4.06e6 | 3.99e6 |
| CG5681 | DRSC02876 | 3.55e6 | 3.96e6 | 4.09e6 |
| Orc2 (Origin recognition complex subunit 2) | DRSC16776 | 3.61e6 | 4.16e6 | 4.05e6 |
| Ada2b (transcriptional Adaptor 2b) | DRSC16531 | 3.41e6 | 3.86e6 | 3.90e6 |
| CG32246 | DRSC08115 | 3.27e6 | 3.79e6 | 3.59e6 |
| Arl1 (ADP ribosylation factor-like 1) | DRSC09667 | 3.76e6 | 4.29e6 | 4.15e6 |
| Ttc7 (Tetratricopeptide repeat domain 7) | DRSC04836 | 3.57e6 | 3.94e6 | 4.03e6 |
| Hgsnat (Heparan-alpha-glucosaminide N-acetyltransferase) | DRSC18405 | 3.59e6 | 4.13e6 | 4.07e6 |
| CG2540 | DRSC19856 | 3.50e6 | 3.85e6 | 3.88e6 |
| Rabex-5 (Rabaptin-5-associated exchange factor for Rab5) | DRSC08628 | 3.76e6 | 4.24e6 | 4.27e6 |
| CG11414 | DRSC04110 | 3.60e6 | 3.92e6 | 3.90e6 |
| pit (pitchoune) | DRSC17025 | 3.37e6 | 3.78e6 | 3.90e6 |
| pit (pitchoune) | DRSC22798 | 3.69e6 | 4.33e6 | 3.99e6 |
| CG13228 | DRSC06348 | 3.48e6 | 3.97e6 | 3.86e6 |
| CG3649 | DRSC04400 | 3.70e6 | 4.48e6 | 3.88e6 |
| CG7560 | DRSC10879 | 3.60e6 | 3.96e6 | 4.17e6 |
| Cad96Cb (Cadherin 96Cb) | DRSC14243 | 3.36e6 | 3.77e6 | 3.77e6 |
| Cad96Cb (Cadherin 96Cb) | DRSC14665 | 3.39e6 | 3.82e6 | 3.79e6 |
| CG8708 | DRSC07240 | 3.56e6 | 4.10e6 | 3.98e6 |
| CG17105 | DRSC02574 | 3.42e6 | 3.77e6 | 3.97e6 |
| unc-5 | DRSC05545 | 3.56e6 | 4.09e6 | 3.96e6 |
| unc-5 | DRSC07711 | 3.36e6 | 4.10e6 | 3.35e6 |
| unc-5 | DRSC07712 | 3.61e6 | 4.11e6 | 4.00e6 |

Part of the list above in another layout:
gene | DRSC id | mean viability with MMS | viability with MMS, replicate 1 | viability with MMS, replicate 2
Snoo (Sno oncogene) | DRSC03004 | 3.65e6 | 4.04e6 | 4.28e6
Snoo (Sno oncogene) | DRSC03035 | 3.63e6 | 4.14e6 | 4.09e6
mago (mago nashi) | DRSC04703 | 2.98e6 | 3.63e6 | 3.60e6
Cpr76Bb (Cuticular protein 76Bb) | DRSC11061 | 3.53e6 | 3.84e6 | 4.16e6
Cpr76Bb (Cuticular protein 76Bb) | DRSC22870 | 3.22e6 | 3.74e6 | 3.82e6
CG32772 | DRSC18052 | 3.53e6 | 4.00e6 | 4.03e6
CG32772 | DRSC18406 | 3.61e6 | 3.99e6 | 4.21e6
CG32772 | DRSC22349 | 3.60e6 | 4.01e6 | 4.12e6
Hsp70Bc (Heat shock protein 70 Bc) | DRSC16053 | 3.42e6 | 3.84e6 | 3.95e6
RunxA (Runt related A) | DRSC20400 | 3.54e6 | 4.05e6 | 3.98e6
RunxA (Runt related A) | DRSC20498 | 3.00e6 | 3.65e6 | 3.69e6
RunxA (Runt related A) | DRSC20524 | 3.67e6 | 4.04e6 | 4.21e6
